Reference: the supplement of paper PMC12819154, “High-throughput peptide-centric local stability assay extends protein–ligand identification to membrane proteins, tissues and bacteria” (Nature Structural & Molecular Biology, 2025)
The list shows a part of the results. Most entries show no effect beyond the scatter of the controls.

By UniProt entry, the sequences of proteins in these tests, tags left out. Where a name states a change or a piece, a line headed by the entry shows the natural chain unless it says otherwise.
UniProt Q9H9Q2: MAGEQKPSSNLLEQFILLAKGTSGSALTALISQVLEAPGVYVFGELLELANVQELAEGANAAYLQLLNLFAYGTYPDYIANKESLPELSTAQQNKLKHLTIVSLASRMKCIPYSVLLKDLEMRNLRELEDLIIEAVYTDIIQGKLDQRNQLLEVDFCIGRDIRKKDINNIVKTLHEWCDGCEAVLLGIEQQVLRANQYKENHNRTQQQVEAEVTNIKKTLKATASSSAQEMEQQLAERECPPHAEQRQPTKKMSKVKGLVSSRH
UniProt Q9HAS0: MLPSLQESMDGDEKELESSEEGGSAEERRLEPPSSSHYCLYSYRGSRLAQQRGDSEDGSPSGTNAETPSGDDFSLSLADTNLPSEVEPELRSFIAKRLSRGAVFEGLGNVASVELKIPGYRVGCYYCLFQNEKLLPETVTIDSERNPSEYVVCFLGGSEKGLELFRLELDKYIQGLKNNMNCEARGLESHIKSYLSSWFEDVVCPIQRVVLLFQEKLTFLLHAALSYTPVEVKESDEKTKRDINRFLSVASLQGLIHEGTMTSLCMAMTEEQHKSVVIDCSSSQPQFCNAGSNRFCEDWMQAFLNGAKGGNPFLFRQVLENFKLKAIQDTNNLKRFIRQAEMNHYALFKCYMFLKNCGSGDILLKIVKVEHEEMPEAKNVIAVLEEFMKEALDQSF
UniProt Q9H7N4: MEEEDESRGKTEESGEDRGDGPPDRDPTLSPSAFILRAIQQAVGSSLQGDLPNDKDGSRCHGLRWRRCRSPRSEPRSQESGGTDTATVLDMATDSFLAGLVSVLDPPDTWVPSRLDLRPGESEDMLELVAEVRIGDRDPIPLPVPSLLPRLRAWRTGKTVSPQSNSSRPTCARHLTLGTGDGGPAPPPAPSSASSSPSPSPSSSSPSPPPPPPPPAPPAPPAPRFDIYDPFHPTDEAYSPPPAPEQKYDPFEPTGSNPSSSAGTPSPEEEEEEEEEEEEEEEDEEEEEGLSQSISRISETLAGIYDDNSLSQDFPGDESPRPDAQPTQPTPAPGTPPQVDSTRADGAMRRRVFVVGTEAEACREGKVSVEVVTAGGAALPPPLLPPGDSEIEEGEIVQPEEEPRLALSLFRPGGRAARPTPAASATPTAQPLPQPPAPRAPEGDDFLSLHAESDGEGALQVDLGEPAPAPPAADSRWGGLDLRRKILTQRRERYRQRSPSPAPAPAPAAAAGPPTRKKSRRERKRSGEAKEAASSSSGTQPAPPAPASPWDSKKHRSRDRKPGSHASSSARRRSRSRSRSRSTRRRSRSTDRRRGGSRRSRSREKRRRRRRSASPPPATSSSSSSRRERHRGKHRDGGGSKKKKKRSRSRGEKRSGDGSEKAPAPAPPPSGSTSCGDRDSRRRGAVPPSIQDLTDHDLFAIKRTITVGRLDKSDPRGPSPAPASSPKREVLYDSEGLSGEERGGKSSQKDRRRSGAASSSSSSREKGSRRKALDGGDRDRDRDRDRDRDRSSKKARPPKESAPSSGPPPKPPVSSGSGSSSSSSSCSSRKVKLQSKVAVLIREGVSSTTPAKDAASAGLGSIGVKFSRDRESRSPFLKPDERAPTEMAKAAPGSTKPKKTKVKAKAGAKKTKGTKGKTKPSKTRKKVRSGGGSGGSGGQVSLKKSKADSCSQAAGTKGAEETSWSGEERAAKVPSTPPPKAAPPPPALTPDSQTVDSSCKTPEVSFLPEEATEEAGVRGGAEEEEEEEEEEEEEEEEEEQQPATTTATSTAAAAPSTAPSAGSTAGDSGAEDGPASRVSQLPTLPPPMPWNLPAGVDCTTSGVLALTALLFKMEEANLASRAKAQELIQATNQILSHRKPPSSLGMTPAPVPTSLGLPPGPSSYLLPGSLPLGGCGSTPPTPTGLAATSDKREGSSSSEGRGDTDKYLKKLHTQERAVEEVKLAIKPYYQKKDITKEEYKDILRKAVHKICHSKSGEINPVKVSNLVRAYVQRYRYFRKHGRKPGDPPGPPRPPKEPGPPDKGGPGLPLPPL
UniProt Q9H467: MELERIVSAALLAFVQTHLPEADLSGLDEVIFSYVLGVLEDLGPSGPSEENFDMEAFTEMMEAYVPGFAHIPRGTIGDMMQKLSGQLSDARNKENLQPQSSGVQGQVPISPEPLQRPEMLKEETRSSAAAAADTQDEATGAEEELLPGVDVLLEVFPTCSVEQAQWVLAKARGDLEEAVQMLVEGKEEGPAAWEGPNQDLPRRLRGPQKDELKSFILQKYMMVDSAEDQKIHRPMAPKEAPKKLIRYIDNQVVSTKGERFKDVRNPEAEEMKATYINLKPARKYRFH
UniProt Q9H8E8: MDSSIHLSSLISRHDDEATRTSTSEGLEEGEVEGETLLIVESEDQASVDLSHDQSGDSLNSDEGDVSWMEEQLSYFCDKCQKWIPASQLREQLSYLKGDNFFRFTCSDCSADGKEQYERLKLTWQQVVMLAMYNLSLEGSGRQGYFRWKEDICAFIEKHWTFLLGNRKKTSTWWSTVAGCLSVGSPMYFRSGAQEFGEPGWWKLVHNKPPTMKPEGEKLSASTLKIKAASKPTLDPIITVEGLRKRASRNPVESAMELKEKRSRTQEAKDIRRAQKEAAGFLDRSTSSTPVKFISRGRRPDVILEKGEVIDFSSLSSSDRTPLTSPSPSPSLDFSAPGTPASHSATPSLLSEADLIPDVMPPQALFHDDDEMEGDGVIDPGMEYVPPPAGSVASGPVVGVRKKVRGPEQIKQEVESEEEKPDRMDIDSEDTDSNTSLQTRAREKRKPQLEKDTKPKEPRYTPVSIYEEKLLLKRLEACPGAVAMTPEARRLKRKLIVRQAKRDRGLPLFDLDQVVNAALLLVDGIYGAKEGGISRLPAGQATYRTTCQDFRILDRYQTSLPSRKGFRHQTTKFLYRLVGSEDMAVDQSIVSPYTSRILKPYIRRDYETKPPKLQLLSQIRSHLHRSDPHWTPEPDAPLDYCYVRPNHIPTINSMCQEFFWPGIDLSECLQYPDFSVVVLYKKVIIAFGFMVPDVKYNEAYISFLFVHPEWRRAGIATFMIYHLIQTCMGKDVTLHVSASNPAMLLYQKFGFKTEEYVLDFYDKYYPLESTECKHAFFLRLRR
UniProt Q9H446: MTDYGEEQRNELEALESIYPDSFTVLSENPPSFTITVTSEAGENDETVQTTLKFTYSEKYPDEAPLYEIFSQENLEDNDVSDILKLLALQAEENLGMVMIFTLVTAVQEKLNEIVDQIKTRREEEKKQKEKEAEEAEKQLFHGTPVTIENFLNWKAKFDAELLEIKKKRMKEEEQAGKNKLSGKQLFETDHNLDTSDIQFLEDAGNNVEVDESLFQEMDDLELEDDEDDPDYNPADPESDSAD
UniProt Q9H3U5: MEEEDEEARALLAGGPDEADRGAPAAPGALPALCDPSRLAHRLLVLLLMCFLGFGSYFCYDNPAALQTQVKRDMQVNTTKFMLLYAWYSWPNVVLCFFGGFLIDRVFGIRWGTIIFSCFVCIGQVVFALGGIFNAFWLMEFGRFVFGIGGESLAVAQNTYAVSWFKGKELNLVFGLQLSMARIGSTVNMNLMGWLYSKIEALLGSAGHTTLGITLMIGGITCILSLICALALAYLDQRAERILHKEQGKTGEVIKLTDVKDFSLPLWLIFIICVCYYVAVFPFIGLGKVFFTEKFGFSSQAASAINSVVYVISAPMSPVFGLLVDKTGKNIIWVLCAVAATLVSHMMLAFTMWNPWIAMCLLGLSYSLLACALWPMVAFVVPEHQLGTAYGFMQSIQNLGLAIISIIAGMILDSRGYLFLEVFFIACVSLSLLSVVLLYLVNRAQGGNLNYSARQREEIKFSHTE
UniProt Q9H9Q4: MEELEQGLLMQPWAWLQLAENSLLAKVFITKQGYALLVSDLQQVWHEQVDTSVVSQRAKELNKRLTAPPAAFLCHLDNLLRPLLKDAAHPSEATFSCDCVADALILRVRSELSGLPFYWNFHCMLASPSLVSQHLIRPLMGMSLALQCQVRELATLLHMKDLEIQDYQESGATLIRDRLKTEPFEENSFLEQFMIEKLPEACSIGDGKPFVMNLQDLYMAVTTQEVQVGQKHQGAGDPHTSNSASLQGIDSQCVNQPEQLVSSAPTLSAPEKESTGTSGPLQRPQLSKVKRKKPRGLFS
UniProt Q9H7C9: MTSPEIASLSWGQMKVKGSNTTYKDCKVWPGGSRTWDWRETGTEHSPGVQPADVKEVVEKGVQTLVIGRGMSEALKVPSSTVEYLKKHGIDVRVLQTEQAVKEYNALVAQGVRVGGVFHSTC
UniProt Q9H8W4: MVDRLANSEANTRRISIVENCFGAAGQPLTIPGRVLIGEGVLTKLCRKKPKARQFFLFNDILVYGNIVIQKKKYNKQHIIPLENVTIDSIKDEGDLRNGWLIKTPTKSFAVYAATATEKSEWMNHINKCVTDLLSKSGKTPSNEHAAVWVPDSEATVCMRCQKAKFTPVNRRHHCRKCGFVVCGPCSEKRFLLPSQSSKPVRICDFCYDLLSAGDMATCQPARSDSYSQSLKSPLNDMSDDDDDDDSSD
UniProt Q9H845: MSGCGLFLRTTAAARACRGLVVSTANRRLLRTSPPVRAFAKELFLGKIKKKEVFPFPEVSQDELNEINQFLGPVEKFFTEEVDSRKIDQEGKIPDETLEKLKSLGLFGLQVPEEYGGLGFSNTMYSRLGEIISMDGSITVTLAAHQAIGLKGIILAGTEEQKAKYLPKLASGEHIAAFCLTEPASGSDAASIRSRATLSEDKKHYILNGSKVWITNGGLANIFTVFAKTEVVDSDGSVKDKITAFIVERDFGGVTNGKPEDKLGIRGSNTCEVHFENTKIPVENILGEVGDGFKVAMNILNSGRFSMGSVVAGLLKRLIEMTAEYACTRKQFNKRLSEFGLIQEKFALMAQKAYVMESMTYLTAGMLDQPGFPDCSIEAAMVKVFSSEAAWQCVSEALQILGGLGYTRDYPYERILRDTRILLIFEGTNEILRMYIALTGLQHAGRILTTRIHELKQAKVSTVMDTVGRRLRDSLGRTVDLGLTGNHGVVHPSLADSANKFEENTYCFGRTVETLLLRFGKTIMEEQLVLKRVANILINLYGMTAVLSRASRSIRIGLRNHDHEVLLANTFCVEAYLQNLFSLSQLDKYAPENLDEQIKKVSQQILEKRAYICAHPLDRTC
UniProt Q9HBI1: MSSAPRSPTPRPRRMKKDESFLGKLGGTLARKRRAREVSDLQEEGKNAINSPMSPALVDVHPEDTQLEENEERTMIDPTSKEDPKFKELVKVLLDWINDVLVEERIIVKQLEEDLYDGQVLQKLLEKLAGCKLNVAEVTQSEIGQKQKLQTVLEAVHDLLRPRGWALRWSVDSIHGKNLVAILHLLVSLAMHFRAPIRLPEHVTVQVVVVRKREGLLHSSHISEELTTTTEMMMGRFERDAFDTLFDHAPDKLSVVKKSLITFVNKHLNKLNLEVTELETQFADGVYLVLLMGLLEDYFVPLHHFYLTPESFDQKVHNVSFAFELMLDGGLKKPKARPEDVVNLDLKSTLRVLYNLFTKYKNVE
UniProt Q9H3K6: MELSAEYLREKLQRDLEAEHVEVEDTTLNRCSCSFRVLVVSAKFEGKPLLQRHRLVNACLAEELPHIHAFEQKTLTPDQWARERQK
UniProt Q9H1K0: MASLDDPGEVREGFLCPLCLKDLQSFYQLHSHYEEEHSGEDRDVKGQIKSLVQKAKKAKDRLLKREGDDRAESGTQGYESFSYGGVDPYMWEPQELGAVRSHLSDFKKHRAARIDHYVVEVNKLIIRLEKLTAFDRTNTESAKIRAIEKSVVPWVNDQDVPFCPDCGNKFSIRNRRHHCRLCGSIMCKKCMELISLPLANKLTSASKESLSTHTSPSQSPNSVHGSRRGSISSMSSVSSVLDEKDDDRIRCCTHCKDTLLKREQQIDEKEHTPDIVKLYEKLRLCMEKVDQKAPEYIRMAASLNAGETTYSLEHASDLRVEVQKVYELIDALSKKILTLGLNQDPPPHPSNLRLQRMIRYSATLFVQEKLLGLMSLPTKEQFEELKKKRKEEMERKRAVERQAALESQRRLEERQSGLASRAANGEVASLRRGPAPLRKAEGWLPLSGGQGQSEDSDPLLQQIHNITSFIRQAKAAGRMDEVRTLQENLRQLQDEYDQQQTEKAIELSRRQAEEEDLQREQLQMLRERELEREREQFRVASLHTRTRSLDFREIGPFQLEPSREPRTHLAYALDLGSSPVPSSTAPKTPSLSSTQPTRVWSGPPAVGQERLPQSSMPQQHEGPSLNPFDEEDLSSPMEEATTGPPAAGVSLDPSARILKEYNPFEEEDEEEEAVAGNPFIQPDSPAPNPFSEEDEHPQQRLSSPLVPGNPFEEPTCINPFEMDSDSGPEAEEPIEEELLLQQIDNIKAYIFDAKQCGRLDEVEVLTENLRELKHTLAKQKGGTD

Compound: Cc1nc(Nc2ncc(C(=O)Nc3c(C)cccc3Cl)s2)cc(N2CCN(CCO)CC2)n1 [dasatinib]
Assay: log2 fold change of tryptic peptide abundance, ligand vs vehicle (limited proteolysis) (log2 ratio); higher = more trypsin-susceptible (destabilized)
Conditions: ligand concentration: 5 uM; sample: K562 cleared lysate

Target	log2 fold change
COPS7B (peptide sequence: HLTIVSLASR, peptide start residue: 98) (UniProt Q9H9Q2)	-0.213
GAN (peptide sequence: NILAAASPYIR, peptide start residue: 46) (UniProt Q9H2C0)	-0.146
C17orf75 (peptide sequence: IVKVEHEEMPEAK, peptide start residue: 366) (UniProt Q9HAS0)	-0.293
IFT122 (peptide sequence: DSIGDEDPFTAK, peptide start residue: 1142) (UniProt Q9HBG6)	-0.287
SCAF1 (peptide sequence: ALDGGDRDR, peptide start residue: 772) (UniProt Q9H7N4)	-0.741
CUEDC2 (peptide sequence: GPQKDELK, peptide start residue: 206) (UniProt Q9H467)	-1.11
UniProt Q9H8E8 (peptide sequence: NPVESAMELK, peptide start residue: 250)	0.465
RWDD1 (peptide sequence: MKEEEQAGK, peptide start residue: 170) (UniProt Q9H446)	0.0693
MFSD1 (peptide sequence: ALLAGGPDEADR, peptide start residue: 10) (UniProt Q9H3U5)	0.00735
CCSER2 (peptide sequence: HTSGNNLVSPDTDYR, peptide start residue: 480) (UniProt Q9H7U1)	0.215
NHEJ1 (peptide sequence: ELATLLHMK, peptide start residue: 152) (UniProt Q9H9Q4)	-0.0606
UniProt Q9H7M9 (peptide sequence: VRHPLSYVAQR, peptide start residue: 259)	-0.141
PNN (peptide sequence: TLQEQLEK, peptide start residue: 7) (UniProt Q9H307)	-0.142
UniProt Q9H7C9 (peptide sequence: VLQTEQAVK, peptide start residue: 94)	0.131
WDR55 (peptide sequence: IRDTPEDIVLEAPASGLAFHPAR, peptide start residue: 28) (UniProt Q9H6Y2)	0.145
PLEKHF2 (peptide sequence: SFAVYAATATEKSEWMNHINK, peptide start residue: 108) (UniProt Q9H8W4)	0.215
ACAD9 (peptide sequence: FSMGSVVAGLLKR, peptide start residue: 305) (UniProt Q9H845)	-0.528
SEC61A2 (peptide sequence: EQQMVMR, peptide start residue: 396) (UniProt Q9H9S3)	0.0418
PARVB (peptide sequence: ARPEDVVNLDLK, peptide start residue: 336) (UniProt Q9HBI1)	-0.74
CXorf56 (peptide sequence: RLQELAELEAKK, peptide start residue: 198) (UniProt Q9H5V9)	-0.576
PTGES2 (peptide sequence: AFLDFHALPYQVVEVNPVRR, peptide start residue: 118) (UniProt Q9H7Z7)	0.147
BRD9 (peptide sequence: VEVEPPPDRPVR, peptide start residue: 116) (UniProt Q9H8M2)	-0.74
ALG9 (peptide sequence: GSGASSGDTAPAADKLR, peptide start residue: 12) (UniProt Q9H6U8)	-0.326
TLNRD1 (peptide sequence: LVSVCDHCK, peptide start residue: 33) (UniProt Q9H1K6)	-0.255
UniProt Q9H8G1 (peptide sequence: YLECDKAFSQSSTLTK, peptide start residue: 515)	-0.131
VEZT (peptide sequence: NKDNSSNEVFPQGAEER, peptide start residue: 673) (UniProt Q9HBM0)	0.301
BOLA2 (peptide sequence: TLTPDQWARER, peptide start residue: 74) (UniProt Q9H3K6)	-0.239
UniProt Q9H1K0 (peptide sequence: TPSLSSTQPTR, peptide start residue: 588)	-0.119

Rewritten with bars between the fields: entries from further up
Target | log2 fold change
MFSD1 (peptide sequence: ALLAGGPDEADR, peptide start residue: 10) (UniProt Q9H3U5) | 0.00735
CCSER2 (peptide sequence: HTSGNNLVSPDTDYR, peptide start residue: 480) (UniProt Q9H7U1) | 0.215
